# Test results as given in patent publication US9057090B2, “Method of identifying an agent for inhibiting odor of pyrazine derivatives” (Kao Corporation, priority 2012, dated 2015).
# Some of these results come from one statement about several compounds together. At least one compound was matched to its structure with a doubt left.
# Biological target: T1, olfactory receptor OR5K1 (Homo sapiens, UniProt Q8NHB7)
# T1 construct: expressed in transfected cells; host or cells: HEK293
# T1 sequence (Q8NHB7 1-308): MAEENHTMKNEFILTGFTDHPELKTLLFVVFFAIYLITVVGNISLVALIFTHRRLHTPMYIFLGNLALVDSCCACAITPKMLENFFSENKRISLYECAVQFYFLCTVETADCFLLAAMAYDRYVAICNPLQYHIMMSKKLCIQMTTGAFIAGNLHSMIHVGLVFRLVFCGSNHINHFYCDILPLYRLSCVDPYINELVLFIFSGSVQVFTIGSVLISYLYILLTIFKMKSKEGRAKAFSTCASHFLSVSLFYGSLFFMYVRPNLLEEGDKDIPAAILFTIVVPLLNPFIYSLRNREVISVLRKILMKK
# Assay: Antagonist assay: inhibition of OR5K1 response to 2,6-dimethylpyrazine (luciferase reporter)
# Type: cell-based
# Conditions: HEK293 cells expressing OR5K1; 2,6-dimethylpyrazine 1 mM + test substance 300 μM (cytotoxic flavoring agents re-evaluated at 333 μM + 100 μM)
# Description: The receptor response-inhibiting rate of a test substance was calculated as follows. The receptor activity (X−Y) by stimulation with 2,6-dimethylpyrazine alone was determined by subtracting the luminescence value (Y) in cells to which the receptor was introduced but were not stimulated with 2,6-dimethylpyrazine from the luminescence value (X) derived from firefly luciferase induced by stimulation with 2,6-dimethylpyrazine alone. Similarly, the receptor activity (Z−Y) in the presence of a test substance was determined by subtracting the luminescence value (Y) in cells not stimulated with 2,6-dimethylpyrazine from the luminescence value (Z) stimulated with a mixture of 2,6-dimethylpyrazine and the test substance. The reduction rate of the receptor activity (Z−Y) in the presence of a test substance to the receptor activity (X−Y) by stimulation with 2,6-dimethylpyrazine alone was calculated by the following computation expression: Inhibition rate (%)={1−(Z−Y)/(X−Y)}×100, to determine the receptor response-inhibiting rate of the test substance. In the measurement, multiple independent experiments were performed in duplicate, and the average of each experiment was used.
row,SMILES,Inhibition rate (receptor response-inhibiting rate)
1,"CCOCOC1CCCCCCCCCCC1 [Boisambrene Forte, formaldehyde cyclododecyl-ethyl acetal]",50% or more
2,"CC(C=O)Cc1ccc2c(c1)OCO2 (stereo not drawn) [helional, α-methyl-3,4-methylenedioxyhydrocinnamic aldehyde]",40% or more
